The list shows a part of the results.
Compound: C#Cc1cccc(Nc2ncnc3cc(OCCOC)c(OCCOC)cc23)c1 [erlotinib]
Experiment: log2 fold change, soluble protein after heating vs DMSO (PISA); higher = thermal stabilisation; K562 lysate, 10 uM; active = over 0.2 and 3.5 SD of the protein, either way, in both replicates (recomputed)
Method in brief: (§1)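 Pellets of K562 cells were dounce-homogenised in PBS pH 7.4 with 1 mM MgCl2, and the crude extract was held at 1 mg/mL protein for a 30 min treatment with 10 μM compound. Aliquots were heated for 3 min over 48°C-58°C and pooled before NP-40 was added to 0.5% at 4°C. The supernatant from 21,000xg for 90 min was quantified by TMTpro 16plex LC-MS/MS with channel sums equalised. Values are reported from duplicates as log-two fold change in thermal stability relative to solvent controls.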

By UniProt entry, the sequences of proteins in these tests, tags left out. Where a name states a change or a piece, a line headed by the entry shows the natural chain unless it says otherwise.
UniProt P30838: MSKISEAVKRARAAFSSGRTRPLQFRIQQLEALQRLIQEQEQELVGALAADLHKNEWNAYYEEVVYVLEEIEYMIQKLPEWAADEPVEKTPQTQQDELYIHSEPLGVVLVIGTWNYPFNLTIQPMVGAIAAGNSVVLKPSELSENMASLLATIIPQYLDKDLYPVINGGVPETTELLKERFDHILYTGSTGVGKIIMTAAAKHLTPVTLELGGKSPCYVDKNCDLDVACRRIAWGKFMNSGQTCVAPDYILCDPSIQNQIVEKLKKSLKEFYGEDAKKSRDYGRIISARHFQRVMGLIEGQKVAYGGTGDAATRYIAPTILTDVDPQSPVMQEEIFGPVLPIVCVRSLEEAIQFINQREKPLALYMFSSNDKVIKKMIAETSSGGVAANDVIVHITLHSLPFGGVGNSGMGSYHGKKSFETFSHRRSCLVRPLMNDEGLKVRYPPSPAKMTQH
UniProt Q9BT30: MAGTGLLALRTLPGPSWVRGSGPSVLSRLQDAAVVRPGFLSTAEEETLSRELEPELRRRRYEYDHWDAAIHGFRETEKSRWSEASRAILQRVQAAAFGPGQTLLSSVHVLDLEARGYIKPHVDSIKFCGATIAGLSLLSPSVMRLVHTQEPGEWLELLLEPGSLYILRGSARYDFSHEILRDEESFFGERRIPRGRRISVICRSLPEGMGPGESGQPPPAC
UniProt Q68DC2: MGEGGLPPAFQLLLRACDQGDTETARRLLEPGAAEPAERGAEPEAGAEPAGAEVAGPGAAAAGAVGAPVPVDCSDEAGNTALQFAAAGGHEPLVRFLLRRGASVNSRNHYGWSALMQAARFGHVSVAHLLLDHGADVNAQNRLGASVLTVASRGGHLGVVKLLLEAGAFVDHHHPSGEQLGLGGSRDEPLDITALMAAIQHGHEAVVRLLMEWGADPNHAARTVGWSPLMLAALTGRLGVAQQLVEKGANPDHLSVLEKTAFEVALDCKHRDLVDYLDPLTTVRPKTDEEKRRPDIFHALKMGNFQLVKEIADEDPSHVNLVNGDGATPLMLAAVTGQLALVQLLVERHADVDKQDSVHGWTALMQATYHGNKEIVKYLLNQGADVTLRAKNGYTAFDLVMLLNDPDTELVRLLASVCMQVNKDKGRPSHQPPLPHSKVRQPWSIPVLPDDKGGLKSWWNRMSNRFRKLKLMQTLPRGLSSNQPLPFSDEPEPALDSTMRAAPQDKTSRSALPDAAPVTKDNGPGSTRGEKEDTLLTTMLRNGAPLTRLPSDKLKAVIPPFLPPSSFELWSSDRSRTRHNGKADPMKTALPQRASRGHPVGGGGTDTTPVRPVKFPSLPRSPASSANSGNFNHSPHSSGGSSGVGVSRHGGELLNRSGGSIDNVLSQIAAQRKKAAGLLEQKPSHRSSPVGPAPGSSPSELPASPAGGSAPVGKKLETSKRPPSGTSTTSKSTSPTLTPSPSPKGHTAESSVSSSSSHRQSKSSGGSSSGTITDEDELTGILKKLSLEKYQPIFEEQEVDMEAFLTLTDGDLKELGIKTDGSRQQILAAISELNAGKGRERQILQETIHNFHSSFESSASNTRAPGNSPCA
UniProt Q9H8T0: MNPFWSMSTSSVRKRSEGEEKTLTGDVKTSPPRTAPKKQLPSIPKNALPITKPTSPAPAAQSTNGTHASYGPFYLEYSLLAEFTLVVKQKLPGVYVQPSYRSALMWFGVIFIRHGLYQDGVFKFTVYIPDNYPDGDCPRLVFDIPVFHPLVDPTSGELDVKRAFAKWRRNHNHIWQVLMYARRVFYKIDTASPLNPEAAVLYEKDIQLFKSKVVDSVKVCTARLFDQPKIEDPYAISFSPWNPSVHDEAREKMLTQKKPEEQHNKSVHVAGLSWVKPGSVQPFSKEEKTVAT
UniProt Q9ULJ7: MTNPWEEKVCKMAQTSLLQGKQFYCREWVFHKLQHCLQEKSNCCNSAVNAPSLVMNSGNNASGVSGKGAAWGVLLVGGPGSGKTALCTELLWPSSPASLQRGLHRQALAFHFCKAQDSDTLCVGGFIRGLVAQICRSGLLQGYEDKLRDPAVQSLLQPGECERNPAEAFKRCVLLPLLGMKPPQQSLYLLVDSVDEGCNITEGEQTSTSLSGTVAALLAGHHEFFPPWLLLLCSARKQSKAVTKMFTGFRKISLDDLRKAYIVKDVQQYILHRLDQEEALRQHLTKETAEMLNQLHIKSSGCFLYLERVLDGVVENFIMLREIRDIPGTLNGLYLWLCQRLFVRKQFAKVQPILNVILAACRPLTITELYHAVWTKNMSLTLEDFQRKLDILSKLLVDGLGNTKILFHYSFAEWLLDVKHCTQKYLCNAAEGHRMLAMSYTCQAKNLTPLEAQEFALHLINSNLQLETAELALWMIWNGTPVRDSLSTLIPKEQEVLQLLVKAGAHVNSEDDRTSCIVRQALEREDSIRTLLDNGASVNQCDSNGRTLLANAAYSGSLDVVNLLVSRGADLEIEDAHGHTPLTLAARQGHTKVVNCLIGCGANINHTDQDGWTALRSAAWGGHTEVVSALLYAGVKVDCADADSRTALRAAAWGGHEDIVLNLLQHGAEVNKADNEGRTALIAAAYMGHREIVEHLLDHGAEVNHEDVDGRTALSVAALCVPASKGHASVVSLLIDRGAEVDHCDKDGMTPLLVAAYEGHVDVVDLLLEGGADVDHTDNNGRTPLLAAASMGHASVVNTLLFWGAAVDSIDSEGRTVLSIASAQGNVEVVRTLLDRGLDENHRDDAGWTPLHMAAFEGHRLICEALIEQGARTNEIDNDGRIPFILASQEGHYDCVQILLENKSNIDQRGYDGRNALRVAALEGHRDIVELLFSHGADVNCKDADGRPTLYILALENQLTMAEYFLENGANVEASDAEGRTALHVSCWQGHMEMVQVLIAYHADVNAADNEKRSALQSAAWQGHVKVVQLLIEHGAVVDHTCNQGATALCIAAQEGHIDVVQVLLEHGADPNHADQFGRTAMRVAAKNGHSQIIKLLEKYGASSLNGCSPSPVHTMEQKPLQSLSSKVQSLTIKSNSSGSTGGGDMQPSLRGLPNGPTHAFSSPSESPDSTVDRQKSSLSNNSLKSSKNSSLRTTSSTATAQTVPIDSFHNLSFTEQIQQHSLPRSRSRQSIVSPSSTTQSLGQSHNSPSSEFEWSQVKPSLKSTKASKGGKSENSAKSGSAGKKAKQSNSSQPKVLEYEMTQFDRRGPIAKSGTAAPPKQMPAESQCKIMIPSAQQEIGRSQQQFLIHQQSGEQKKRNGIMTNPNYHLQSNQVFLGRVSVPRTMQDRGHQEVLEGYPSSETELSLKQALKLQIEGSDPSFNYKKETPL
UniProt Q9BS18, whole entry, looked up: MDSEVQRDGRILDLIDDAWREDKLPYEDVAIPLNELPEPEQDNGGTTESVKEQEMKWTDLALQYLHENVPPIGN
UniProt Q9Y303: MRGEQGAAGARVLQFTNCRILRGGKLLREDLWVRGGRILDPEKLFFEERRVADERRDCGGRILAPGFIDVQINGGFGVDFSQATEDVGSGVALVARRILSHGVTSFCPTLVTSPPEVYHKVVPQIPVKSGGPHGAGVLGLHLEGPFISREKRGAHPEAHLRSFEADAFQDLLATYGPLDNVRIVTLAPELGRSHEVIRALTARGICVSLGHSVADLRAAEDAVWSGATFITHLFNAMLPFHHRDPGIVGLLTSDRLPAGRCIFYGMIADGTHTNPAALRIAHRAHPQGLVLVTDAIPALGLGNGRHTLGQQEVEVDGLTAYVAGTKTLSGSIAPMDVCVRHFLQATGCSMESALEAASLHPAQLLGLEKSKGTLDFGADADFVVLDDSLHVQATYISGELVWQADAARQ
UniProt Q6ZW76: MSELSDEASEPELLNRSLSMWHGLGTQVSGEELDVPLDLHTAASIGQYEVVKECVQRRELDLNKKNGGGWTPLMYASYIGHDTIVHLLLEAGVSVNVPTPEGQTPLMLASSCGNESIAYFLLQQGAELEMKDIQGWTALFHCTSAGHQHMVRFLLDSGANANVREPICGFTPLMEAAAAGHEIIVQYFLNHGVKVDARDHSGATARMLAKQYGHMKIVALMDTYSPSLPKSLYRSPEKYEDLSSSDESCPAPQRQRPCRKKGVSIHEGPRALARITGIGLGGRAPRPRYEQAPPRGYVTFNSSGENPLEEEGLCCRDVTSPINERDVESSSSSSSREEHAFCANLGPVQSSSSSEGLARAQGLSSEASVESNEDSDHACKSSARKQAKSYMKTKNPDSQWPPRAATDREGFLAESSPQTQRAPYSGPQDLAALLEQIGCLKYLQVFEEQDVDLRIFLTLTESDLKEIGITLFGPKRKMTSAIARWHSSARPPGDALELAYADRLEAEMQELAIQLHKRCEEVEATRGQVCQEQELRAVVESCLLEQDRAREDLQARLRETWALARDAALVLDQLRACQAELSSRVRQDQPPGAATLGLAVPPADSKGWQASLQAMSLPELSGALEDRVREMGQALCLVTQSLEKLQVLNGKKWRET
UniProt Q9BTT0: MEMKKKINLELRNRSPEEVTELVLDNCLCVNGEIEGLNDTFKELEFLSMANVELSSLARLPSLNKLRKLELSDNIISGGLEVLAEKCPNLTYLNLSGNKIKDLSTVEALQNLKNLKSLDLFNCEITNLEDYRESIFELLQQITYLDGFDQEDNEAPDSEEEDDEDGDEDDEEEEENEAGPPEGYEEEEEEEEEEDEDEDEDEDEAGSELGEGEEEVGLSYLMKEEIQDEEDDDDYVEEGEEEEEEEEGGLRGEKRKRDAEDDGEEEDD
UniProt Q86SJ2: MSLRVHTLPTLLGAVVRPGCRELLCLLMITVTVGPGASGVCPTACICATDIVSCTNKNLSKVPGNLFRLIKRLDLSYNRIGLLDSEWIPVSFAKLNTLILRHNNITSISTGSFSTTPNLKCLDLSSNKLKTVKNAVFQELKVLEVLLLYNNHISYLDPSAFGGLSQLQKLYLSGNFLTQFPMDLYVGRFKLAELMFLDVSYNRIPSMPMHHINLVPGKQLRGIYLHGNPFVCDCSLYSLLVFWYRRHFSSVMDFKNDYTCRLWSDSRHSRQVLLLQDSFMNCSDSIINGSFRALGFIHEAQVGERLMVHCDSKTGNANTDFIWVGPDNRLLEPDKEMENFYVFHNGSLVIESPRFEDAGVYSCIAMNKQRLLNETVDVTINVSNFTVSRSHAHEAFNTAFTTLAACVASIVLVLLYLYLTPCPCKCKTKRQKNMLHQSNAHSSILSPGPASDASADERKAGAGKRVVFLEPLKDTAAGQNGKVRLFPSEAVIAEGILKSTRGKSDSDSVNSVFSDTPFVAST
UniProt P49189: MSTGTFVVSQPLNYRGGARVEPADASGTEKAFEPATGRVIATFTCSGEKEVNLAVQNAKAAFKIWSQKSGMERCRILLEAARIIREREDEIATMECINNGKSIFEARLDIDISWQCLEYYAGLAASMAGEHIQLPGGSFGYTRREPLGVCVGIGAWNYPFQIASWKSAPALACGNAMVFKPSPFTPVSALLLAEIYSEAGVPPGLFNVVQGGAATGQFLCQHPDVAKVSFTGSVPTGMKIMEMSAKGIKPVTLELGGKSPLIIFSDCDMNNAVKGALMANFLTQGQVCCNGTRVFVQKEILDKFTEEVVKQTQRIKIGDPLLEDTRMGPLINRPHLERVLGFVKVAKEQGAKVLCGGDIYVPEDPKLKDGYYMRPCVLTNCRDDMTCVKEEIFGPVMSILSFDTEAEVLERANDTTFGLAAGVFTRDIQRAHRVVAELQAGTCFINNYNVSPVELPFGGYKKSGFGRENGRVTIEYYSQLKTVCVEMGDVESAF

Target | log2 fold change
ANAPC15 isoform 2 (UniProt P60006) | inactive: -0.003
ALDH3A1 (UniProt P30838) | inactive: 0.147
ALKBH7 (UniProt Q9BT30) | inactive: -0.169
ANKS6 isoform 4 (UniProt Q68DC2) | inactive: 0.119
AKTIP isoform 2 (UniProt Q9H8T0) | inactive: 0.005
ANKHD1 (UniProt D6RHC4) | inactive: -0.037
ANXA6 (UniProt E5RK69) | inactive: 0.066
ANKRD50 (UniProt Q9ULJ7) | inactive: -0.048

Pulled one by one from the list above:
Target | log2 fold change
ANKS6 isoform 4 (UniProt Q68DC2) | inactive: 0.119
ANKHD1 (UniProt D6RHC4) | inactive: -0.037

Compound: C/C(=N\NC(=O)C1=CC(=CC=C1)S(=O)(=O)N2CCOCC2)/C3=C(C=CC(=C3)Cl)O
Experiment: as above
Method in brief: as §1

Target | log2 fold change
ALDH18A1 isoform 2 (UniProt P54886) | inactive: -0.298
ANAPC13 (UniProt Q9BS18) | inactive: 0.132
AMDHD2 (UniProt Q9Y303) | active: -0.527
ANKS3 (UniProt Q6ZW76) | inactive: 0.333
ANP32E isoform 3 (UniProt Q9BTT0) | inactive: -0.079
AMIGO2 (UniProt Q86SJ2) | inactive: 0.071
ALDH9A1 (UniProt P49189) | inactive: -0.08

— the supplement of paper PMC10849652
